Measurements from patent publication US20140357838A1, “N-Terminally Modified Insulin Derivatives” (Novo Nordisk A/S, priority 2011, published 2014).
At least one structure is not confirmed: it was looked up by name or label, or the drawing left a doubt. Starred links: 1 amine or outer side, 2 acyl side, 3 side chain; linkers in the order of their positions; H or OH if unused. Positions of bridges follow the written chain, without caps; N, C: chain ends. Groups on a side chain read outwards from the residue. Chains are numbered I, II in the order given. No end group written: not given here. *: point of attachment. C18 diacid = O=C(O)CCCCCCCCCCCCCCCCC(=O)*; NMe2Phe = CN(C)[C@@H](Cc1ccccc1)C(=O)*; γGlu = O=C(O)[C@H](CCC(=O)[*:2])N[*:1]; Me2Gly = CN(C)CC(=O)*

Columns and labels:
Type in all cases: physicochemical
[1] = Hydrophobicity by isocratic reverse phase HPLC; settings: k'rel, isocratic RP-HPLC, pH 7.3, human insulin = 1
Procedure: The hydrophobicity of an N-terminally modified insulin is found by reverse phase HPLC run under isocratic conditions. […] The hydrophobicity, k′rel, is calculated as: k′relderiv=((tderiv−t0)(tref−t0)*k′relref. Using HI as reference: k′relref=k′relHI=1. The void time of the HPLC system, t0, is determined by injecting 5 μl of 0.1 mM NaNO3. Running conditions:
Column: Lichrosorb RP-C18, 5 μm, 4×250 mm
Buffer A: 0.1 M natrium phosphate pH 7.3, 10 vol % CH3CN
After running an initial gradient, the isocratic level for running the derivative and reference (for example HI) is chosen, and the elution times of the derivative and reference under isocratic conditions are used in the above equation to calculate k′relderiv.

[2] = Thioflavin T (ThT) fibrillation assay; settings: same experiment as prior art derivatives, 37° C., 960 rpm, pH 7.4, mean ± SD
Description: This has traditionally been measured by visual inspection of the sample. However, that kind of measurement is very subjective and depending on the observer. Therefore the application of a small molecule indicator probe is much preferred. […] The time course for fibril formation can be described by a sigmoidal curve with the following expression (Nielsen at al. Biochemistry 40, 6036-6046, 2001):
Here, F is the ThT fluorescence at the time t. The constant t0 is the time needed to reach 50% of maximum fluorescence. The two important parameters describing fibril formation are the lag-time calculated by t0-2[…] and the apparent rate constant kapp=1/{tilde over (□)}.
Samples were prepared freshly before each assay. Each analog was dissolved in 2 mM sodium phosphate, pH=7.4. Thioflavin T was added to the samples from a stock solution in water to a final concentration of 1 μM. Sample aliquots of 200 μl were placed in a 96 well microtiter plate (Packard Optiplate™-96, white polystyrene). Usually four replica of each sample (corresponding to one test condition) were placed in one column of wells. The plate was sealed with Scotch Pad (Qiagen).
Incubation at given temperature, shaking and measurements of the ThT fluorescence emission were done in either a Fluoroskan Ascent FL or Varioskan fluorescence plate reader (thermo Labsystems). The temperature was adjusted to 37° C. […] Fluorescence measurements were done using excitation through a 444 nm filter and measurement of emission through a 485 nm filter.
Each run was initiated by incubating the plate at the assay temperature for 10 min. The plate was measured every 20 minutes for typically 45 hours. Between each measurement, the plate was shaken and heated as described above.
The measurement data points were saved in Microsoft Excel format for further processing and curve drawing and fitting was performed using Graph Pad Prism. […] The data points are typically a mean of four samples. Only data obtained in the same experiment (i.e. samples on the same plate) are presented in the same graph ensuring a relative measure of fibrillation between the individual samples of one assay rather then comparison between different assays. The data set may be fitted to Eq. (1). However since the full sigmoidal curves are not usually achieved during the measurement time, the degree of fibrillation is expressed as ThT fluorescence at various time points calculated as the mean of the four samples and shown with the standard deviation

[3] = Chemical stability of insulin derivatives in 2 mM phosphate (SEC-HPLC and RP-HPLC); settings: pH 7.5, SEC-HPLC, 4 weeks 37° C. minus 5° C. start sample
Procedure: Chemical stability of an insulin derivative is assessed after incubating insulin derivative in 2 mM phosphate, pH=7.5 at 37° C. for up to 8 weeks. Formation of high molecular weight products (HMWP) is determined by SEC HPLC analysis after 0, 2, 4 and optionally 8 weeks. The results of the SEC method are given as a difference between HMWP formation at 37° C. and 5° C. start sample as a percentage of total absorbance at 215 nm. Chemical degradation products are determined by RP HPLC analysis after 0, 2, 4 and optionally 8 weeks. The results of the RP method are given as a difference between chemical degradation observed at 37° C. and 5° C. start sample as a percentage of total absorbance at 215 nm.
• Solvent: 500 mM NaCl, 10 mM NaH2PO4, 5 mM H3PO4, 50% (v/v) 2-propanol • Flow: 0.5 ml/min • Run time: 30 min • UV Detection: 215 nm • Column: Insulin HMWP column from Waters 7.8×300 mm • Temperature: 50° C.
• Solvent A: 0.09M phosphate buffer pH 3.6 (di-ammoniumhydrogenphosphate), 10% MeCN (v/v) • Solvent B: 80% MeCN (v/v %) • Flow: 0.3 ml/min • Runtime: 33 min • UV Detection: 215 nm • Column: Waters Acquity BEH130 C18 Column 1.7 μm, 150×2.1 mm • Temperature: 50° C. • Gradient: […]

I: NMe2Phe-VCQHLCGSHLVEALYLVCGERGFHYPK([γGlu-C18 diacid]) / II: Me2Gly-IVEQCCTSCCSLEQLENYCN (disulfide I:2-II:9, I:6-II:6, I:18-II:19, II:5-II:10) [Example 1, A1(N^α,N^α-Dimethyl), A10C, A14E, B1(N^α,N^α-dimethyl), B3C, B25H, desB27, B29K(N^εoctadecanedioyl-gGlu), desB30 human insulin]
Hydrophobicity rel. to human insulin [1]: 0.12
ThT 0 h ([2]; 0 h): 25 ± 1.4
ThT 5 h ([2]; 5 h): 14 ± 0.5
ThT 10 h ([2]; 10 h): 46 ± 38
ThT 30 h ([2]; 30 h): 73 ± 6
ThT 40 h ([2]; 40 h): 73 ± 6
HMWP Formation (%) (4 weeks 37° C.- 0 weeks 5° C.) [3]: 0.9%
